The campaign covered roughly 300,000 compounds. About 5,400 (1.8%) were called active. The inconclusive results got no clear call from the source; some entries with a clear call stand among them for comparison. Calls follow the shape of the full dose curve; tested in HEK293 cells. Potencies of inconclusive entries are doubtful fits and often do not repeat.
assay: qHTS for inhibitors of binding or entry into cells for Marburg Virus; details: Marburg virus pseudotyped entry inhibition, cell reporter; series mostly up to 37.8 µM
Potency is read from the fitted curve at half-maximal effect.

Compound	Potency
O=C(NC1CCN(C(=S)Nc2ccc(F)cc2)CC1)c1ccco1	inconclusive: 5.62 µM [activator, single point]
CCOC(=O)c1cc2c(ccn2C)n1CC(=O)N1CCN(c2ccccc2)CC1	inactive
O=C(Nc1cccc(NC(=O)N2CCN(c3ccccc3)CC2)c1)N1CCN(c2ccccc2)CC1	inconclusive: 35.5 µM [inhibitor, single point]
CCC1CCc2c(sc3nc(SCC(=O)NCc4ccco4)n(-c4ccccc4)c(=O)c23)C1 (configuration not stated)	inconclusive: 11.2 µM [inhibitor, single point]
COc1ccc(C(CNC(=O)C(=O)Nc2ccc3c(c2)OCO3)N2CCN(C)CC2)cc1 (configuration not stated)	inconclusive: 1.26 µM [activator, single point]
Cc1ccc(-c2nc3ccccc3c(=O)n2CCN2CCOCC2)cc1	inconclusive: 16.4 µM [activator, single point]
CSc1cccc(NC(=O)C(C)C)c1	inactive
COc1ccc(CN2CN(C(C)C)CSC2=S)cc1	inconclusive: 18.3 µM [inhibitor, partial curve, poor fit]
CC1CCCCC12NC(=O)N(CC(=O)OCC(=O)c1ccc(OC(F)F)cc1OC(F)F)C2=O (configuration not stated)	inconclusive: 35.5 µM [activator, single point]
Cc1ccc(-n2nnnc2SCC(=O)NNC(=O)c2ccco2)c(C)c1	inconclusive: 0.58 µM [activator, full curve]
Cc1ccc(S(=O)(=O)c2ccc(Cl)cc2)cc1S(=O)(=O)N1CCOCC1	inconclusive: 29.1 µM [inhibitor, partial curve, poor fit]
COc1c(C)cc(C(=O)C2CCCN(S(=O)(=O)c3c(C)noc3C)C2)cc1C (configuration not stated)	inconclusive: 8.91 µM [inhibitor, partial curve, poor fit]
CC(C)(C)C(=O)OCc1cn(-c2ccccc2)nn1	inactive
CCn1c(SCC(=O)Nc2ccccc2OC)nc2ccccc2c1=O	inconclusive: 18.3 µM [inhibitor, single point]
CCOC(=O)N/N=C1\C[C@@H](O)[C@@H](O)[C@@H]2[C@@H]3C(=O)N(CC)C(=O)[C@@H]3CC[C@H]12	inactive
O=C(Nc1cccc(S(=O)(=O)c2cccc(NC(=O)C3CC3)c2)c1)C1CC1	inconclusive: 29.1 µM [inhibitor, single point]
Cc1ccc(S(=O)(=O)Nc2ccc(C(=O)Nc3ccncc3)cc2)cc1	inconclusive: 35.5 µM [inhibitor, single point]
C=CCc1cc(Cl)ccc1OCCOCCNC(C)CC (configuration not stated)	active: 11.2 µM
COc1ccc(/C=N/Nc2nc(C)cc(-c3ccccc3)n2)cc1OC	inconclusive: 14.1 µM [inhibitor, partial curve, poor fit]
CC(=O)c1ccc(NC(=O)CSc2nc(=O)cc(N)n2-c2ccccc2)cc1	inconclusive: 35.5 µM [activator, single point]
CCOC(=O)c1sc(NC(=O)C(CC)Sc2nccn2C)nc1C (configuration not stated)	inconclusive: 9.2 µM [inhibitor, partial curve, poor fit]
COc1ccc(C(=O)Nc2cccc3cccnc23)cc1OC	inconclusive: 7.3 µM [inhibitor, partial curve]
COc1ccc(Cn2nnnc2CN(CCCN2CCOCC2)Cc2cc3cc(OC)ccc3[nH]c2=O)cc1	inconclusive: 35.5 µM [inhibitor, single point]

Compound	Potency
CCC(C)Cn1c(COc2ccc(OC)cc2)nc2ccccc21 (configuration not stated)	inactive
Cc1ccc(-c2noc(CCC(=O)NCCCN3CCN(c4cccc(Cl)c4)CC3)n2)cc1	inconclusive: 35.5 µM [inhibitor, single point]
O=C(CCN1C(=O)COc2ccccc21)NCCN1CCOCC1	inactive
CCN1C/C(=C/c2cccs2)c2nc3ccccc3c(C(=O)O)c2C1	inactive
C/C(CC(=O)NCCc1ccccc1)=N\NC(=O)COc1ccc(Br)cc1	inconclusive: 5.62 µM [activator, single point]
CC(=O)OCC1=C(C(=O)O)N2C(=O)C(NC(=O)Cn3nc(C(F)F)c(Cl)c3C)C2SC1 (configuration not stated)	inactive
COC(=O)c1cn(C(=O)c2ccc(C)cc2C)c2ccccc12	inconclusive: 7.08 µM [inhibitor, partial curve]
COCC(=O)N/N=C(\C)CC(=O)Nc1ccccc1C(N)=O	inconclusive: 25.1 µM [activator, single point]
Cn1c(=O)c2c(nc(NCCNC(=O)c3ccco3)n2Cc2ccccc2F)n(C)c1=O	inactive
CCCOc1ccc(C(=O)Nc2cc3nn(-c4ccc(CC)cc4)nc3cc2C)cc1	inactive
O=[N+]([O-])c1ccccc1N/N=C/c1ccc2c(c1)OCO2	inconclusive: 2.51 µM [inhibitor, full curve, poor fit]
COc1ccc(-n2nc(C(=O)NCC(=O)NCC3COc4ccccc4O3)c3ccccc3c2=O)cc1 (configuration not stated)	inconclusive: 12.6 µM [inhibitor, partial curve, poor fit]
N#CC1=C(Nc2ccccc2)SC=C(c2ccc(Cl)c(Cl)c2)N=C1N1CCOCC1	inconclusive: 15.8 µM [inhibitor, partial curve, poor fit]
CCN(CC)CC(C)(C)NS(=O)(=O)c1ccc(Cl)cc1	inactive
Cn1c(N)c(C(=O)COC(=O)/C=C/c2ccc(Cl)cc2Cl)c(=O)n(C)c1=O	inactive
O=C1NC(c2cc3ccccc3nc2Cl)Nc2ccccc21 (configuration not stated)	inactive
O=C(Cc1cccs1)NCc1ccco1	inactive
O=C1NC[C@H](COC[C@@H]2CC=CCC2)O1	inconclusive: 3.66 µM [inhibitor, partial curve, poor fit]
Cc1c(NC(=O)Nc2ccccc2)cccc1[N+](=O)[O-]	inconclusive: 7.94 µM [activator, partial curve, poor fit]
O=C(CNC(=O)c1ccc(Br)o1)NNC(=O)c1ccccc1	inconclusive: 0.224 µM [activator, full curve, poor fit]
COc1ccccc1C1C2CCCCC2(O)CCN1CC(=O)Nc1ccccc1 (configuration not stated)	inconclusive: 29.1 µM [inhibitor, single point]
COc1ccc(NC(=O)N2CCC(C(=O)c3ccc4c(c3)OCCO4)CC2)cc1	inconclusive: 10 µM [activator, partial curve, poor fit]
O=C(N/N=C/c1ccc(Cl)cc1)c1sccc1OCc1ccc(F)cc1	inconclusive: 1.41 µM [inhibitor, full curve]

Compound	Potency
Cc1onc(-c2ccccc2Cl)c1C(=O)Nc1cccc(-c2cn3cccnc3n2)c1	inconclusive: 29.1 µM [inhibitor, single point]
COc1ccc(/C=N/NC(=S)Nc2cccc(C(=O)O)c2)cc1	inconclusive: 6.31 µM [inhibitor, partial curve, poor fit]
COc1ccc(-c2csc3ncnc(N4CCN(S(=O)(=O)c5cccc(Br)c5)CC4)c23)cc1	inconclusive: 25.1 µM [inhibitor, single point]
CSCCC(NC(=O)c1ccccc1Cl)C(=O)NNC(=O)c1ccncc1 (configuration not stated)	inactive
Cc1c(C(=O)NCc2ccco2)oc2ccc(Br)cc12	inconclusive: 35.5 µM [inhibitor, single point]
CC(C)CCSc1nc2c(c(=O)n(C)c(=O)n2C)n1Cc1ccccc1Cl	inconclusive: 5.62 µM [activator, single point]
CCC1=C([N+](=O)[O-])C(c2ccc3c(c2)OCO3)NC(=O)N1 (configuration not stated)	inactive
O=C(NC(=S)NCCC1=CCCCC1)c1ccco1	inconclusive: 35.5 µM [activator, partial curve, poor fit]
Cc1cc(Br)ccc1NC(=O)CN(C)C(=O)CSC(=S)N1CCCC1	inconclusive: 2.51 µM [inhibitor, full curve, poor fit]
O=C(NCCn1cc(SCc2ccc(C(F)(F)F)cc2)c2ccccc21)c1ccccc1F	inactive
COc1cccc(NC(=O)C2C3C=CC4(O3)C2C(=O)N(CCCN2CCCC(C)C2)C4C(=O)NC2CCCCC2C)c1 (configuration not stated)	inactive
CCn1c(O)c(C2=NCCCC2)c2ccccc21	inconclusive: 10 µM [activator, partial curve, poor fit]
CN1CCN(c2oc(-c3ccccc3F)nc2S(=O)(=O)c2ccc(Cl)cc2)CC1	inconclusive: 35.5 µM [inhibitor, single point]
Cn1cccc1/C=C1\SC(=S)N(NC(=O)c2ccc(Cl)cc2)C1=O	inconclusive: 0.251 µM [inhibitor, full curve, poor fit]
CCCSc1ncc(Cl)c(C(=O)Nc2ccc(OC)cc2OC)n1	inactive
CSCC[C@H](NC(=O)Cc1c(C)c2c(cc(C)c3c(C)coc32)oc1=O)C(=O)O	inconclusive: 35.5 µM [activator, single point]
CC1=CC(C)(C)n2c(O)c(N=NC(N)=S)c3cccc1c32	inconclusive: 6.51 µM [inhibitor, single point]
CN1/C(=C\C(=O)COC(=O)C2COc3ccccc3O2)C(C)(C)c2ccccc21 (configuration not stated)	inactive
CCN(C(=O)CN1C(=O)NC(c2ccccc2)(c2ccccc2)C1=O)c1ccccc1	inconclusive: 7.94 µM [inhibitor, partial curve]
COc1ccccc1N1CCN(CC(=O)c2c(C)n(C)c3ccccc23)CC1	inconclusive: 29.1 µM [inhibitor, single point]
CN(c1ccccc1)S(=O)(=O)c1ccc(NC(=O)c2ccccc2C(=O)O)cc1	inconclusive: 6.31 µM [activator, single point]

Some of the entries so far, in markdown:

| Compound | Potency |
| --- | --- |
| CSCCC(NC(=O)c1ccccc1Cl)C(=O)NNC(=O)c1ccncc1 (configuration not stated) | inactive |
| CC1=CC(C)(C)n2c(O)c(N=NC(N)=S)c3cccc1c32 | inconclusive: 6.51 µM [inhibitor, single point] |
| CCN(C(=O)CN1C(=O)NC(c2ccccc2)(c2ccccc2)C1=O)c1ccccc1 | inconclusive: 7.94 µM [inhibitor, partial curve] |
| COc1ccccc1N1CCN(CC(=O)c2c(C)n(C)c3ccccc23)CC1 | inconclusive: 29.1 µM [inhibitor, single point] |
